According to article doi:10.1101/847996:
No constants are given. Whether binding was seen depends on the method and setting. In cells and extracts the contact can be indirect. Some binding calls cover weakened binding; strength is not graded here. Tags and fused reporters may be left off the sequences shown. One block for each molecule: values may come before it.

Amino acid sequences for entries named in this document (tags omitted).
UniProt Q7Z6Z7: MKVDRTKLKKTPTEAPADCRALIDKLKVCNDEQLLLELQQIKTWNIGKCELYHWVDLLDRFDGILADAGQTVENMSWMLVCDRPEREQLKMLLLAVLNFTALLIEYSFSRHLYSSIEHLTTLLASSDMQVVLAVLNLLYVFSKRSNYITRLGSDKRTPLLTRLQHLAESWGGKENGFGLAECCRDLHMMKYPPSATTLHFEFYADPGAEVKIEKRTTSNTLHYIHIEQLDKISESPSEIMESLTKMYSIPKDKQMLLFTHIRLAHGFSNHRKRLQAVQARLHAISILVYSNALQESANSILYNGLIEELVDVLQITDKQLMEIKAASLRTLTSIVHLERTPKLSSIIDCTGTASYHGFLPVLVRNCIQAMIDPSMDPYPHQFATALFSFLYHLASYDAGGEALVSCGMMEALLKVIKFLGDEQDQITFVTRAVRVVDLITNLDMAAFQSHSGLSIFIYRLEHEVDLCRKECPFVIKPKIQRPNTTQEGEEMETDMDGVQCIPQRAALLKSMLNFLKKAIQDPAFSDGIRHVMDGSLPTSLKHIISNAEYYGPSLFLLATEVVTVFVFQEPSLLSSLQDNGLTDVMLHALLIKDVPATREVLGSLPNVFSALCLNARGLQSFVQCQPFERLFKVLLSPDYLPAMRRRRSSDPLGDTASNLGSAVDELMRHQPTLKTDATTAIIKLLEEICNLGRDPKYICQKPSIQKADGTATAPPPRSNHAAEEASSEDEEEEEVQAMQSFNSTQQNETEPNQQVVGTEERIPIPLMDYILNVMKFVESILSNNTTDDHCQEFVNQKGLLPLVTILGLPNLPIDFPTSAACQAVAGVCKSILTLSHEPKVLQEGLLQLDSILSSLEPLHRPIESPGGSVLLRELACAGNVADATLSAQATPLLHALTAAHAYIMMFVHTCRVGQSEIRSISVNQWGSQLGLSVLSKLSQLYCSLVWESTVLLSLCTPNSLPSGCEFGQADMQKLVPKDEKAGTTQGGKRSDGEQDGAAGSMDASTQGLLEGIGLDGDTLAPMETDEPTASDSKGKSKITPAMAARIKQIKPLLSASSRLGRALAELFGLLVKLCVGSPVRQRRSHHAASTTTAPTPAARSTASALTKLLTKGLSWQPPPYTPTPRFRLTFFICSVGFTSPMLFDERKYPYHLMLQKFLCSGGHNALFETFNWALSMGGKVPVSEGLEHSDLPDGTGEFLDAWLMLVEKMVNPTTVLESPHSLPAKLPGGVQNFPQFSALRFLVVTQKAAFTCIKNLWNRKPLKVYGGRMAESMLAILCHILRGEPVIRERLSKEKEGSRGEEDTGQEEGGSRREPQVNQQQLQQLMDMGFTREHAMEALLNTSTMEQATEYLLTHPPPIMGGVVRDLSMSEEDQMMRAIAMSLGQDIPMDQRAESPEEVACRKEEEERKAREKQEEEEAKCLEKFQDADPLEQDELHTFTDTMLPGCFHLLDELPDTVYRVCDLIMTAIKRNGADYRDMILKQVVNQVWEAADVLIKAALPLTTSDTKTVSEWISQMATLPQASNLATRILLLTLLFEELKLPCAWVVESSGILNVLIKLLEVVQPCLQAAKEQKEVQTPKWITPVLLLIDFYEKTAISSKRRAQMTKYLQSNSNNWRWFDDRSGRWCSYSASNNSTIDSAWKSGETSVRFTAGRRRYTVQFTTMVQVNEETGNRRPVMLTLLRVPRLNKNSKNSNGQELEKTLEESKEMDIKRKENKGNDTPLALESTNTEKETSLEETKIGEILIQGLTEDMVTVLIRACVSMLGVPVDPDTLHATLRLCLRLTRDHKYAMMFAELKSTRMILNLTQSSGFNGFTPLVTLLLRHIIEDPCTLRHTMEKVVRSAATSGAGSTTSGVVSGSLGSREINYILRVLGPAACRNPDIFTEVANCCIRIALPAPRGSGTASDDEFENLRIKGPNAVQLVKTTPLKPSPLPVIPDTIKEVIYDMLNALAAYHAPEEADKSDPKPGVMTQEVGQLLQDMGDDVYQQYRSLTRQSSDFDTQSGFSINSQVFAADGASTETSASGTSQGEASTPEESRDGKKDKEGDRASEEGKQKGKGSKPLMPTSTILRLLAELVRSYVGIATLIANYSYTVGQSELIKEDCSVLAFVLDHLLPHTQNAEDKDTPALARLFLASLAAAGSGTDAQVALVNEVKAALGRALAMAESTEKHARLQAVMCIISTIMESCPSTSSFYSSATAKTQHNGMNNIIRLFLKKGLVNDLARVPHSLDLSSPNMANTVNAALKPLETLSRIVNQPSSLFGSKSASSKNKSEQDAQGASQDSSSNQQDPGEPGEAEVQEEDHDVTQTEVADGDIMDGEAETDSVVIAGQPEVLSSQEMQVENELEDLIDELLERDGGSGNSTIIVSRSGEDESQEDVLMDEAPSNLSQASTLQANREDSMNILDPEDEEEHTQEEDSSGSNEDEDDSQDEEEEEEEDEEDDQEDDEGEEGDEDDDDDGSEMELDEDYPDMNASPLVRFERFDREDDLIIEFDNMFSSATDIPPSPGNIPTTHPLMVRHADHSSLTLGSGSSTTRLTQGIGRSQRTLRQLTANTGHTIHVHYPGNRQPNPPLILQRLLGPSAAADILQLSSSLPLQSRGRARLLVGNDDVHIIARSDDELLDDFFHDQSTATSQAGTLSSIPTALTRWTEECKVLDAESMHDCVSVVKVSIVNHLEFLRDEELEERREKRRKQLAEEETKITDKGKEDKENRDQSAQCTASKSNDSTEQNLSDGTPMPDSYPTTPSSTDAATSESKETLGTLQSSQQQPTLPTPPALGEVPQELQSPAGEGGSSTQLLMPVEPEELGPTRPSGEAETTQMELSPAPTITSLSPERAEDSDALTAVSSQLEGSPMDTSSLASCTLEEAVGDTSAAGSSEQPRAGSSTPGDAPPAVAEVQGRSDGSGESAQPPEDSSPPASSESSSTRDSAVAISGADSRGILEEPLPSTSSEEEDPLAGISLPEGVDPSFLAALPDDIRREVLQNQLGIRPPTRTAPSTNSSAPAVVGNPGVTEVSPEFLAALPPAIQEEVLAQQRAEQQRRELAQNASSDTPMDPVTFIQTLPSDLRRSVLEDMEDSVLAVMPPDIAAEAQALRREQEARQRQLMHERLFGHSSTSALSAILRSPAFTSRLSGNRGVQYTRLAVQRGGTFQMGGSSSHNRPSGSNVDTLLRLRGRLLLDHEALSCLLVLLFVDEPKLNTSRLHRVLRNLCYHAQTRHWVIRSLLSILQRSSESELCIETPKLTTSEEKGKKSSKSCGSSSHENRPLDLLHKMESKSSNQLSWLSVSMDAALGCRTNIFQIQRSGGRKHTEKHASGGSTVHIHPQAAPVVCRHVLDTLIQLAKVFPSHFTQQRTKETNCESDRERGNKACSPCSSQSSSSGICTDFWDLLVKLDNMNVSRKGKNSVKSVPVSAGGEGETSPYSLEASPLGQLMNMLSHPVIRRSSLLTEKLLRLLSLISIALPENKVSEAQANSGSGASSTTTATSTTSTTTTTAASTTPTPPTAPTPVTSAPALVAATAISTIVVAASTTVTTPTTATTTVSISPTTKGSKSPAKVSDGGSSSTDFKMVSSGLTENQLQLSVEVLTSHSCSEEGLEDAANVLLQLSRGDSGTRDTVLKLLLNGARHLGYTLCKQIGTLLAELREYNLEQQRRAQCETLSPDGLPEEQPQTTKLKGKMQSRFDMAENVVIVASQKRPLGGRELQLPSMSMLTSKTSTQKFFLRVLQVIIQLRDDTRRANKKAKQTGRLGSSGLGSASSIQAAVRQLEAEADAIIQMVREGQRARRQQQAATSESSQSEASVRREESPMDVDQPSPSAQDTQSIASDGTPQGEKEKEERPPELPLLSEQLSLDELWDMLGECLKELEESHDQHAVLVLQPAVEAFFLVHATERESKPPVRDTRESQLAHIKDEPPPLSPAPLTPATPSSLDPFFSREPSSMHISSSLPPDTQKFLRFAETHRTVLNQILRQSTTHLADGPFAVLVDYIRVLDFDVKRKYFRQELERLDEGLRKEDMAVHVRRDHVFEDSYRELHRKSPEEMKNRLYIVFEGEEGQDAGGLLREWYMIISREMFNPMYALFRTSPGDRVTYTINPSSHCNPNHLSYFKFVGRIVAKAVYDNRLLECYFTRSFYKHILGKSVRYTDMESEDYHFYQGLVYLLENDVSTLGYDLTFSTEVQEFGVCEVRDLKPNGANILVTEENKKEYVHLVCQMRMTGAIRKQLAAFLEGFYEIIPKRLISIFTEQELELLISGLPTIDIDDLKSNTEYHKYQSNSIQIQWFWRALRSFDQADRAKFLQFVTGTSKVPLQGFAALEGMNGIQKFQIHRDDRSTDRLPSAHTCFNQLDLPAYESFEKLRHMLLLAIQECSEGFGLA

How the values were obtained:
[1] = biological target: T1, 3xFLAG-tagged C16orf72 (human) (UniProt Q14CZ0); assay: co-IP
T1 sequence: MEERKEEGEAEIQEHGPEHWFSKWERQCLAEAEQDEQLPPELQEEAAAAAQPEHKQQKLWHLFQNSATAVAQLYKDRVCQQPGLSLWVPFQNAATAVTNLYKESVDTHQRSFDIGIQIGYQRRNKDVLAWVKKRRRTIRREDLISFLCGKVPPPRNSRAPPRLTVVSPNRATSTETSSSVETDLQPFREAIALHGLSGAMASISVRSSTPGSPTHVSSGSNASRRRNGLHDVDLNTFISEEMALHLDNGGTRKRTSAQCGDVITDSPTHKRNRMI

[2] = biological target: Hect ubiquitin E3 ligase HUWE1 (human (endogenous in HEK293T)) (UniProt Q7Z6Z7); assay: co-IP

- binding [1]: binds
Molecule: Hect ubiquitin E3 ligase HUWE1 (from UniProt Q7Z6Z7 1-4374) (enzyme)

- binding [2]: binds
B1: 3xFLAG-tagged C16orf72 (protein, UniProt Q14CZ0 1-275)
chain: T1 sequence
